Data on one molecule can be found in article PMC11900566.

The chains behind the UniProt entries cited, without tags or fusion partners.
UniProt O82486: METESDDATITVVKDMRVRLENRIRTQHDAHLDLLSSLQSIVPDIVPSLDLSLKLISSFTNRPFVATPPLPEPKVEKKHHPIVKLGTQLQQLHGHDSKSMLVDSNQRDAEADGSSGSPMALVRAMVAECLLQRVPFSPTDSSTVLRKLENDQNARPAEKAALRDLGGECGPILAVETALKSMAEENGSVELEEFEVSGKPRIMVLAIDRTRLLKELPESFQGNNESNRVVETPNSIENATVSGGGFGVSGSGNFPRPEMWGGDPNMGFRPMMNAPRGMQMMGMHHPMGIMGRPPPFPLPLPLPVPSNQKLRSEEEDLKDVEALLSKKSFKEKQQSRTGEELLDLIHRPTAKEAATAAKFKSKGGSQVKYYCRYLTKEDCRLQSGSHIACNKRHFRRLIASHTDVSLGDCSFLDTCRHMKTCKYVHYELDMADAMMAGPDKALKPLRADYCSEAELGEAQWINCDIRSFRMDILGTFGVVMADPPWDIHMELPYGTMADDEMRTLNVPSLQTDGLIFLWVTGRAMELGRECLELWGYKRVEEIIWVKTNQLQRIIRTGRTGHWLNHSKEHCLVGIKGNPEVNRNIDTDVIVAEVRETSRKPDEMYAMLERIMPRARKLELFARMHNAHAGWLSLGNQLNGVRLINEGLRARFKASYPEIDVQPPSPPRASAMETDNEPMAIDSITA

Results are given in words; binding and its absence hold for the method and conditions named. Binding seen in cells or lysates may run through a third protein. Some results given as binding are weak or reduced against the parent protein; the word gives no strength. Sequences can lack the tags named with a protein.

In this experiment the target is AtMTA-NLUC (Arabidopsis) (UniProt O82486). The experiment is described as follows: split reporter; Split-LUC imaging; CLUC and NLUC fusions co-infiltrated by Agrobacterium GV3101 into N. benthamiana leaves; 500 uM luciferin, dark for 5 min.

B1: AtSET-CLUC (domain or fragment, UniProt Q9C5X4 898-1016)
chain: KRLAFGKSGIHGFGIFAKLPHRAGDMMIEYTGELVRPSIADKREQLIYNSMVGAGTYMFRIDDERVIDATRTGSIAHLINHSCVPNCYSRVITVNGDEHIIIFAKRHIPKWEELTYDYR
On to B1, for which the binding entry is “binds”.
